Measured values published in article PMC5595929.
These are yes or no findings as the source states them, for the method shown. Binding seen in cells or lysates may run through a third protein. Some entries that bind do so weakly or less than the wild type. Where a sequence is shown, tags or fusion partners need not be part of it. One block for each molecule: values may come before it.

Protein sequences, listed by entry. Tags and fused reporters are not part of them. Lines headed by an entry give the natural chain unless they say otherwise; changes in a name come on top.
UniProt P21860: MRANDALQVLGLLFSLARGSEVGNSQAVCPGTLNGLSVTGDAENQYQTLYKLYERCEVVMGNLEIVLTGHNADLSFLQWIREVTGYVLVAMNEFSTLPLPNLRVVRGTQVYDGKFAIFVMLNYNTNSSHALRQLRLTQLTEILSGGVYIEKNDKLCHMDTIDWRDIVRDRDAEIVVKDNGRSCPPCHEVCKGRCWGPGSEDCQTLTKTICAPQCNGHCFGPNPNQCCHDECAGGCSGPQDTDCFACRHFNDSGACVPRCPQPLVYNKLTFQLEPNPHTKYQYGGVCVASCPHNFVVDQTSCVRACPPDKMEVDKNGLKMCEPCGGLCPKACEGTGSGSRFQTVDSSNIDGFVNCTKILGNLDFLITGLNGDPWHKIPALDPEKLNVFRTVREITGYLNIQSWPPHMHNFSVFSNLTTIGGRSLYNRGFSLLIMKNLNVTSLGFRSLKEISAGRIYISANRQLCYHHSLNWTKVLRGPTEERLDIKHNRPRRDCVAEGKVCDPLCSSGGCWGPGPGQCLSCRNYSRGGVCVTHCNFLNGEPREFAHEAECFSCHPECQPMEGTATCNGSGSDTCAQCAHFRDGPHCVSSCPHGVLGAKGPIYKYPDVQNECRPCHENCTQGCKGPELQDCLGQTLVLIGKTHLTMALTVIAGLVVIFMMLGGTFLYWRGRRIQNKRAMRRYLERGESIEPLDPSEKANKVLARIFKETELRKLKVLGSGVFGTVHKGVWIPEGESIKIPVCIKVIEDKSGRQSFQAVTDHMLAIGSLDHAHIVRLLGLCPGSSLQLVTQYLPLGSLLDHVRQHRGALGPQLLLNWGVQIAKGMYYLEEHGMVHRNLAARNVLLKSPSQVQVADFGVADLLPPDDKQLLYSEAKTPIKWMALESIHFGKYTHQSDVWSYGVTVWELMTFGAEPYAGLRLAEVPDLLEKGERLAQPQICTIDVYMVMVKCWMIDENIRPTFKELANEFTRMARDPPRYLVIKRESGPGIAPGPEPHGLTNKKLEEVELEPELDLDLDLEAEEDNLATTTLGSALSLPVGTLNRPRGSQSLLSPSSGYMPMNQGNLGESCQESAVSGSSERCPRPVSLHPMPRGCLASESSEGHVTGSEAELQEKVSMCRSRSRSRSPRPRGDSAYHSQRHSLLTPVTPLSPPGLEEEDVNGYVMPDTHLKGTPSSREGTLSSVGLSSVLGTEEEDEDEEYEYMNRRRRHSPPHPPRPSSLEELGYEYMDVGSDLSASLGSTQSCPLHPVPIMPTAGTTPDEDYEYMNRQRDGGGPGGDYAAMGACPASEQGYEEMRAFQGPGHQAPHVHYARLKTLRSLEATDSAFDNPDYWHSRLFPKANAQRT

What was measured:
[1] = biological target: T1, FLAG-tagged Necl-4 (nectin-like molecule-4/cell adhesion molecule 4) (UniProt Q8NFZ8); assay: co-IP; HEK293E cells co-transfected; FLAG-Necl-4 constructs precipitated with the anti-FLAG mAb, ErbB3-GFP constructs detected by blot; cells starved of serum and cultured with or without HRG (Fig. 2a), cultured in suspension (Fig. 5a); lysis buffer 20 mM Tris-HCl pH 7.5, 1% Nonidet P-40, 150 mM NaCl; beads 4 °C, 2 h
T1 sequence: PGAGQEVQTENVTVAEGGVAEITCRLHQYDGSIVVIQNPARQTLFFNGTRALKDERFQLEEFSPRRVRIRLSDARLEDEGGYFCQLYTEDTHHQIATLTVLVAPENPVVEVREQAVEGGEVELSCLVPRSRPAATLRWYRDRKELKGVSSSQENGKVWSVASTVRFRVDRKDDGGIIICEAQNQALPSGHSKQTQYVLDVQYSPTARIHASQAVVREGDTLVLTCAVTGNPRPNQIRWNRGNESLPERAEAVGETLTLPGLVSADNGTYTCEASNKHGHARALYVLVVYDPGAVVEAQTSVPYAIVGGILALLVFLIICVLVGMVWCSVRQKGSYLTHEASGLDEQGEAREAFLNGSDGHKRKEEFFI

[2] = biological target: T2, FLAG-Necl-4-Ig3-TM, the third Ig-like domain of Necl-4 with transmembrane region (UniProt Q8NFZ8); assay: as above
T2 sequence: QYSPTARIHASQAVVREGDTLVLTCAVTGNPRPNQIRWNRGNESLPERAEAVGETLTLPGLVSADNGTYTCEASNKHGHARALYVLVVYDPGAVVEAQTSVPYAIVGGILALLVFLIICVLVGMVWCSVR

[3] = biological target: ErbB3 mutant in which the cytoplasmic region and the domains 1, 2, and 3 were deleted (GFP-tagged) (human) (UniProt P21860); assay: co-IP; reciprocal: HEK293E cells co-transfected; ErbB3-GFP and its mutants precipitated with the anti-GFP pAb, FLAG-Necl-4 detected by blot (Fig. 5b cells in suspension; Fig. 2c)
[4] = biological target: ErbB3 mutant in which the cytoplasmic region and the domains 1 and 2 were deleted (GFP-tagged) (human) (UniProt P21860); assay: as above
[5] = biological target: GFP-tagged ErbB3 (human) (UniProt P21860); assay: as above
[6] = biological target: ErbB3 mutant in which the cytoplasmic region and the domain 1 were deleted (GFP-tagged) (human) (UniProt P21860); assay: as above

Molecule: ErbB3 mutant in which the cytoplasmic region and the domains 1, 2, and 3 were deleted (GFP-tagged) (from UniProt P21860 472-708) (domain or fragment)
binding [1]: binds weakly

Molecule: GFP-tagged ErbB3 (from UniProt P21860 20-1342) (receptor)
binding [1]: binds
binding [2]: binds

B1: FLAG-tagged Necl-4 (nectin-like molecule-4/cell adhesion molecule 4) (protein, UniProt Q8NFZ8 21-388)
chain: PGAGQEVQTENVTVAEGGVAEITCRLHQYDGSIVVIQNPARQTLFFNGTRALKDERFQLEEFSPRRVRIRLSDARLEDEGGYFCQLYTEDTHHQIATLTVLVAPENPVVEVREQAVEGGEVELSCLVPRSRPAATLRWYRDRKELKGVSSSQENGKVWSVASTVRFRVDRKDDGGIIICEAQNQALPSGHSKQTQYVLDVQYSPTARIHASQAVVREGDTLVLTCAVTGNPRPNQIRWNRGNESLPERAEAVGETLTLPGLVSADNGTYTCEASNKHGHARALYVLVVYDPGAVVEAQTSVPYAIVGGILALLVFLIICVLVGMVWCSVRQKGSYLTHEASGLDEQGEAREAFLNGSDGHKRKEEFFI
binding [3]: binds weakly
binding [4]: binds
binding [5]: binds
binding [6]: binds

The remaining lines, values ahead:

binding [1]: binds
Molecule: ErbB3 mutant in which the cytoplasmic region and the domain 1 were deleted (GFP-tagged) (from UniProt P21860 184-708) (domain or fragment)

binding [1]: binds
Molecule: ErbB3 mutant in which the cytoplasmic region and the domains 1 and 2 were deleted (GFP-tagged) (from UniProt P21860 328-708) (domain or fragment)
